Assay results published in PubChem BioAssay AID588499 (NMMLSC, 2011).
Values joined by “and” are separate entries in the source; they are usually repeats but may differ in a detail not shown here. Identical values can stand only once. Screen size: about 360,000 compounds; about 610 (0.17%) were called active. Inconclusive results, whose numbers are uncertain, are shown with a selection of clear calls. No stated cut-off is given here; in the data, active means inhibition above about 30%; inconclusive means no clear call, values can overlap the other calls; inactive means below that.

Test system: Botulinum neurotoxin type A light chain protease (Clostridium botulinum A str. ATCC 3502)
Assay: blockers of BoNT/A LC substrate cleavage – biochemical, flow cytometry, MLPCN library, primary screen (AID 588499); further: plate controls were buffer without enzyme for full effect and enzyme alone for no effect
Conditions: multiplex microsphere protease substrate cleavage, at 10 µM, stronger effect = higher value

Structure (SMILES)	inhibition
CSCCC(NC(=O)C1CCC(C)CC1)C(=O)O (stereo not given)	inconclusive: -3.9%
Cc1ccc(-c2cc(C(=O)NCc3ccco3)no2)cc1	inconclusive: -2.1%
Cc1cccc(NCC(=O)N/N=C\c2cccn2C)c1	inconclusive: -3.1%
CN1/C(=C/C(=S)NC(=O)C2(C)CC2(Cl)Cl)C(C)(C)c2ccccc21 (stereo not given)	inactive: 13.5%
CCOc1ccc(S(=O)(=O)N2CCCC(C(=O)Nc3cccc(C)c3)C2)cc1 (stereo not given)	inactive: -0.6%
CCCCOC(=O)CCCN1C(=O)/C(=C2\SC(=S)N(CCCC(=O)OCCCC)C2=O)SC1=S	active: 65.3%
Cc1ccccc1C(=O)NCC(c1ccco1)N1CCc2ccccc21 (stereo not given)	inconclusive: 37%
CC(=O)Nc1cc(C(N)=O)c(Cl)cc1Cl	inconclusive: -333%
Cc1cc(C)n(C(=O)c2cccc([N+](=O)[O-])c2C)n1	inconclusive: -4.4%
Cc1ccc(NC(C#N)c2ccccc2OCc2ccccc2)cc1 (stereo not given)	inconclusive: -2.9%
O=C(NCc1ccccc1CN1CCCCC1)c1ccccc1N1CCCC1=O	inactive: -0.2%
COc1ccc(C(=O)NCCn2ccc3ccccc32)c(OC)c1	inactive: 8.9%
Cn1nc(C(F)(F)F)cc1-c1ccc(S(N)(=O)=O)s1	inconclusive: -5.2%
CCc1ccc(NC(=S)NCc2cccnc2)cc1	inconclusive: -6.5%
COCCNc1nc(N2CCCCC2)c2cnn(C)c2n1	inactive: -1.3%
CCOC(=O)C1CCCN(C(=O)C(C)Oc2ccc(Cl)cc2Cl)C1 (stereo not given)	inconclusive: 4.5%
COc1ccccc1N1N=C(c2ccc([N+](=O)[O-])cc2)CC1c1ccccc1 (stereo not given)	active: 38.5%
COc1ccccc1-c1cnc(C(O)c2cc(C)ccc2C)[nH]1 (stereo not given)	inactive: -0.1%
COc1cc2c3c(cccc3c1)C(=O)N(CCN1CCCC1)C2=O	inactive: 0.2%
O=C(NCc1ccccc1)N[C@@H](Cc1ccccc1)C(=O)O	inconclusive: -1.9%
CCOC(=O)c1c(C)[nH]c(C(C)=O)c1C	inconclusive: 1.9%
CCC(=O)Nc1ccc2c(c1)nc(CCN1CCN(c3ccccc3)CC1)n2C	inconclusive: -10.7%
COC(=O)N(NC(=O)C(O)(C(C)C)C(C)C)c1ccccc1	inconclusive: -12.4%
O=C(N/N=C1\C(=O)c2cccc3cccc1c23)c1ccc(O)cc1	inactive: 0.3%

Structure (SMILES)	inhibition
O=C(O)c1ccc(-n2cccc2)cc1O	inconclusive: 36.5%
CCc1ccccc1N1CCN(S(=O)(=O)c2cc(OC)ccc2OC)CC1	inconclusive: 0%
NC(=S)Nc1c(Cl)cccc1Cl	inconclusive: 0.5%
CC(=O)Nc1ccc(S(=O)(=O)NCCC(=O)NNC(=O)c2ccncc2)cc1	inactive: -1.3%
CC1(C)Cc2c(sc3nc(C4CC4)n(N)c(=O)c23)CO1	inconclusive: -9.6%
COc1ccc(Cc2nnc(SCC(=O)NCCc3ccccc3)o2)cc1	inconclusive: -4.9%
CNC(=O)Cc1csc2ccc(C)cc12	inconclusive: -2.1%
Cc1cc(NC(=O)c2cnn3c(C(F)F)cc(-c4ccccc4)nc23)no1	inconclusive: -0.8%
CCc1c(C(=O)Nc2ncn(Cc3cccc(C)c3)n2)csc1C	inconclusive: -3.2%
O=C(O)/C=C/C(=O)NCc1csc2ccccc12	inconclusive: 8.6%
COc1ccc(C(=O)N/C(=C\c2ccc3c(c2)OCO3)C(=O)NCCc2nc3ccccc3[nH]2)cc1	inactive: -0.2%
COc1cccc(-c2nnn(CC(C)=O)n2)c1	inactive: -0.5%
O=C(NCc1ccccc1F)C1CCCN(C(=O)NC2CCCCC2)C1 (stereo not given)	inconclusive: -1.5%
C=CCSc1nnc(-c2cccc3ccccc23)o1	inactive: -0.1%
CC(Oc1ccc(Cl)cc1Cl)/C(N)=N/O (stereo not given)	inconclusive: -11.8%
COC(=O)c1ccc(NC(=O)C(=O)c2c[nH]c3ccccc23)cc1	inconclusive: 2.4%
CCOC(=O)c1c(-n2cnnn2)sc2c1CCCC2	inconclusive: -63.2%
COc1ccc(-c2csc(NC(=O)CN3C(=O)NC4(CCCC4)C3=O)n2)c(OC)c1	inconclusive: -1.5%
O=[N+]([O-])c1cnccc1Nc1ccc(Cl)cc1	inconclusive: -17.2%
CC(C)CN(C(=O)COc1ccc(C(C)(C)C)cc1)C1CCS(=O)(=O)C1 (stereo not given)	inconclusive: -2.1%
CCOC(=O)c1nnn(-c2ccccc2)c1C	inconclusive: -3.9%
CC1(C)CC(NC(=O)c2cccc(F)c2)CC(C)(C)N1	inconclusive: 5.1%
COc1ccccc1CNc1nc2nc(C)c(Cl)c(=O)n2[nH]1	inconclusive: 0.9%
O=C1CCCC2=C1C(c1ccc(Cl)cc1)n1c(s/c(=C\c3ccc4ccncc4c3)c1=O)=N2 (stereo not given)	active: 36.6%

Structure (SMILES)	inhibition
COC(=O)C(Cc1csc2ccc(Cl)cc12)NC(=O)c1ccc(Cl)cc1 (stereo not given)	inconclusive: 29.3%
O=S(=O)(NCc1csc(-c2cccs2)n1)c1cccs1	inconclusive: -10.3%
Cc1csc(NC(=O)c2cncc(Br)c2)n1	inactive: -0.1%
NC(=NC(=O)c1ccc(OC(F)(F)F)cc1)c1ccc(C(F)(F)F)cn1	inconclusive: -14.3%
O=C1CCCC/C1=C/Nc1ccc2c(c1)OCO2	inactive: 1.1%
CCOC(=O)c1ccc(NC(=O)N(CC)CC)cc1	inconclusive: 0.1%
Cc1cc(C(=O)OCC(=O)NC(C)(C)C)c2ccccc2n1	inconclusive: -2.4%
COc1ccc(N2CCN(S(=O)(=O)c3ccc(Br)s3)CC2)cc1	inconclusive: -1%
O=C(c1ccccc1)C1CCN(C(=O)c2c(F)cccc2F)CC1	inactive: 1.3%
Cc1nc(CSc2n[nH]c(=O)n2-c2cccc(F)c2)cs1	inconclusive: -21.2%
O=[N+]([O-])c1ccc(C2=NN(c3ccccc3)C(c3ccco3)C2)cc1 (stereo not given)	active: 58.7%
CC1(/[N+]([O-])=C\c2ccccc2F)CCCCC1=O (stereo not given)	inconclusive: 3.1%
C=C1CC(C)OC(c2ccccc2OCC(O)CN2CCCCC2)C1 (stereo not given)	inconclusive: -0.4%
CCC/C(=C1/C(=O)CC(C)(C)C(C(=O)OC)C1=O)N1CCCC1 (stereo not given)	inactive: -1%
CN(c1ccccc1)c1ccc(/C=C/[N+](=O)[O-])cc1	active: 69.8%
Cc1cccc2c1NC(C)CC2C (stereo not given)	active: 34.1%
CCOC(=O)c1c(C)oc2c(CN3CCN(C)CC3)c(Br)c(OC)c(O)c12	inconclusive: 14%
CC(OC(=O)c1cc(=O)[nH]c2ccccc12)C(=O)NCc1ccccc1 (stereo not given)	inactive: 4.1%
COc1ccc(OC)c(-c2nn(-c3ccccc3)cc2C(=O)NCC(c2cccs2)N2CCOCC2)c1 (stereo not given)	inconclusive: -1.5%
CCCCP(=O)(O)c1ccccc1	inconclusive: -0.1%
CN1CCN(/C=C(\C#N)S(=O)(=O)c2ccc(Cl)cc2)CC1	inconclusive: -0.7%
Cc1oc2ccccc2c1-c1cn2c(n1)SCC2	inconclusive: -2.8%
O=C(Nc1nc2cc3c(cc2s1)OCCO3)c1ccc([N+](=O)[O-])o1	inactive: -0.3%
C[C@@H]1CN([C@H](C)CO)C(=O)CCCn2nncc2CO[C@@H]1CN(C)S(=O)(=O)c1cccc(F)c1	inactive: -1.2%

Structure (SMILES)	inhibition
COc1ccc(Cl)cc1N(CC(=O)Nc1ccccc1SC)S(C)(=O)=O	inconclusive: 1.5%
COc1cccc(CNn2cnnc2)c1OCc1ccccc1F	inconclusive: 7.2%
COc1ccc(-n2c(=O)c3ccccc3n(CC(=O)NC3CCCC3)c2=O)c(OC)c1	inactive: 4%
Cc1ccnc(NC(=O)CCCOc2cc(=O)n(C)c3ccccc23)c1	inconclusive: -3.3%
Cc1nn(C)c(C(=O)Sc2cccc(Cl)c2)c1[N+](=O)[O-]	inconclusive: -4.9%
Oc1c(C=C2N=c3ccccc3=N2)sc(=S)n1C1CCCCC1	active: 75.4% and active: 69.8%
CN(C)c1ccc(N/C=C/C(=O)c2ccc(F)cc2)cc1	inconclusive: 13%
Cc1ccc(C(=O)Nc2ccc(S(=O)(=O)N3CCc4ccccc43)cc2)o1	inconclusive: -1.1%
COc1ccc(Sc2ccc(-c3nc4cnccn4c3NC3CCCCC3)cc2OC)cc1	inactive: 0%
Cc1ccc(-c2csc3ncnc(SCC(=O)Nc4nnc(C)s4)c23)cc1	inconclusive: 1.6%
COC(=O)c1noc(C)c1-c1ccnn1C(=O)c1ccc(Cl)cc1	inconclusive: 23.7%
CCn1c(=O)cc(SCC(=O)NCCN2CCN(Cc3ccccc3)CC2)c2ccccc21	inconclusive: 0.5%
CCCOP(=O)(OCCC)C(Nc1ccc(C(C)C)cc1)c1ccc([N+](=O)[O-])cc1 (stereo not given)	inconclusive: 3.2%
Cc1cccc(/C=N/n2c(-c3ccco3)n[nH]c2=S)c1	inconclusive: 2.7%
Cc1c(C(C)(C)C)c(C=S)n2ccccc12	inconclusive: 2%
Cc1cc(C)n(-c2nc3ccccc3c(=O)n2OCc2ccc(Cl)cc2)n1	inconclusive: -0.3%
Cn1cccc1Cc1nnc(SCC(=O)N2CCOCC2)n1-c1ccc(F)cc1	inactive: 0.4%
CCN(CC)C(=S)Oc1ccc(Cl)cc1Cl	inconclusive: -4.8%
CCN(CC)c1ccc(/C=C/c2ccc3ccc(OC)cc3[n+]2CC)cc1	active: 59.5%
CC(C)Sc1nnc([C@@H](N)Cc2c[nH]c3ccccc23)o1	inconclusive: 8.8%
O=S(=O)(Nc1cccnc1Cl)c1ccc2c(c1)OCCO2	inconclusive: -1.1%
CC(=O)Nc1ccc(CCCCc2ccc(NC(C)=O)cc2)cc1	inactive: -0.1%
COC(=O)C1=C(C)N(C)C(=O)NC1c1cc(Cl)cc(Cl)c1OC (stereo not given)	inconclusive: -6.1%
